Some of these results come from one statement about several compounds together.
What was measured:
Format in all cases: in vivo
[1] = system: diamondback moth (Plutella xylostella); assay: Test A: control of diamondback moth on radish plant, foliar spray; settings: sprayed at 50 ppm; radish plant with neonate larvae; visually assessed after 6 days
[2] = system: fall armyworm (Spodoptera frugiperda); assay: Test B: control of fall armyworm on corn (maize) plant, foliar spray; settings: sprayed at 50 ppm; corn (maize) plant with 1-day-old larvae; visually rated after 6 days
[3] = system: tobacco budworm (Heliothis virescens); assay: Test C: control of tobacco budworm on cotton plant, foliar spray; settings: sprayed at 50 ppm; cotton plant with 2-day-old larvae; visually rated after 6 days
[4] = system: beet armyworm (Spodoptera edigua); assay: Test D: control of beet armyworm on corn plant, foliar spray; settings: sprayed at 50 ppm; corn plant with 1-day-old larvae; visually rated after 6 days

Measured: feeding damage (excellent levels of plant protection)

O=C1NCN(C(=O)c2cc(Cl)nn2-c2ncccc2Cl)c2c(Cl)cc(Cl)cc21 [Compound 28, 6,8-Dichloro-1-[[3-Chloro-1-(3-Chloro-2-pyridinyl)-1H-pyrazol-5-yl]carbonyl]-2,3-dihydro-4(1H)-quinazolinone]
≤ 20%: [1] | [2]

Cc1cc(Cl)cc2c1N(C(=O)c1cc(Br)nn1-c1ncccc1Cl)CN(C(C)C)C2=O [Compound 15, 1-[[3-Bromo-1-(3-Chloro-2-pyridinyl)-1H-pyrazol-5-yl]carbonyl]-6-Chloro-2,3-dihydro-8-methyl-3-(1-methylethyl)-4-(1H)-quinazolinone]
≤ 20%: all assays above

CC(C)N1CN(C(=O)c2cc(Cl)nn2-c2ncccc2Cl)c2c(Cl)cc(Cl)cc2C1=O [Compound 8, 6,8-Dichloro-1-[[3-Chloro-1-(3-Chloro-2-pyridinyl)-1H-pyrazol-5-yl]carbonyl]-2,3-dihydro-3-(1-methylethyl)-4(H)-quinazolinone]
≤ 20%: all assays above

Cc1cccc2c(=O)n(C(C)C)c(=O)n(C(=O)c3cc(C(F)(F)F)nn3-c3ncccc3Cl)c12 [Compound 1]
≤ 20%: [1] | [3]

Cc1cc(Cl)cc2c1N(C(=O)c1cc(Br)nn1-c1ncccc1Cl)CN(C)C2=O [Compound 18, 1-[[3-Bromo-1-(3-Chloro-2-pyridinyl)-1H-pyrazol-5-yl]carbonyl]-6-Chloro-2,3-dihydro-3,8-dimethyl-4(1H)-quinazolinone]
≤ 20%: all assays above

CN1CN(C(=O)c2cc(Br)nn2-c2ncccc2Cl)c2c(Cl)cc(Cl)cc2C1=O [Compound 12, 1-[[3-Bromo-1-(3-Chloro-2-pyridinyl)-1H-pyrazol-5-yl]carbonyl]-6,8-dichloro-2,3-dihydro-3-methyl-4(1H)-quinazolinone]
≤ 20%: all assays above

Cc1cc(Cl)cc2c1N(C(=O)c1cc(C(F)(F)F)nn1-c1ncccc1Cl)CN(C)C2=O [Compound 19, 6-Chloro-1-[[1-(3-Chloro-2-pyridinyl)-3-(tifluoromethyl)-1H-pyrazol-5-yl]carbonyl]-2,3-dihydro-3,8-dimethyl-4(1H)-quinazolinone]
≤ 20%: all assays above

Cc1cc(Br)cc2c(=O)n(C)c(=O)n(C(=O)c3cc(Br)nn3-c3ncccc3Cl)c12 [Compound 5, 6-Bromo-1-[[3-bromo-1-(3-Chloro-2-pyridinyl)-1H-pyrazol-5-yl]carbonyl]-3,8-dimethyl-2,4(1H,3H)-quinazolinedione]
≤ 20%: all assays above

Cc1cc(Cl)cc2c1N(C(=O)c1cc(Cl)nn1-c1ncccc1Cl)CN(C(C)C)C2=O [Compound 14, 6-Chloro-1-[[3-Chloro-1-(3-Chloro-2-pyridinyl)-1H-pyrazol-5-yl]carbonyl]-2,3-dihydro-8-methyl-3-(1-methylethyl)-4(1H)-quinazolinone]
≤ 20%: all assays above

O=C1c2cc(Cl)cc(Cl)c2N(C(=O)c2cc(Cl)nn2-c2ncccc2Cl)C(c2ncc[nH]2)N1Cl (stereo not shown) [Compound 23]
≤ 20%: all assays above

Cc1cc(Cl)cc2c1N(C(=O)c1cc(C(F)(F)F)nn1-c1ncccc1Cl)CN(C(C)C)C2=O [Compound 16, 6-Chloro-1-[[1-(3-Chloro-2-pyridinyl)-3-(trifluoromethyl)-1H-pyrazol-5-yl]carbonyl]-2,3-dihydro-8-methyl-3-(1-methylethyl)-4(1H)-quinazolinone]
≤ 20%: all assays above

CN1CN(C(=O)c2cc(Cl)nn2-c2ncccc2Cl)c2c(Cl)cc(Cl)cc2C1=O [Compound 11, 6-8-Dichloro-1-[[3-Chloro-1-(3-Chloro-2-pyridinyl)-1H-pyrazol-5-yl]carbonyl]-2,3-dihydro-3-methyl-4(1H)-quinazolinone]
≤ 20%: all assays above

Cc1cccc2c1N(C(=O)c1cc(Br)nn1-c1ncccc1Cl)CN(C(C)C)C2=O [Compound 7, 1-[[3-bromo-1-(3-chloro-2-pyridinyl)-1H-pyrazol-5-yl]carbonyl]-2,3-dihydro-8-methyl-3-(1-methylethyl)-4(1H)-quinazolinone]
≤ 20%: all assays above

CC(C)N1CN(C(=O)c2cc(C(F)(F)F)nn2-c2ncccc2Cl)c2c(Cl)cc(Cl)cc2C1=O [Compound 10, 6,8-Dichloro-1-[[1-(3-Chloro-2-pyridinyl)-3-(trifluoromethyl)-1H-pyrazol-5-yl]carbonyl]-2,3-dihydro-3-(1-methylethyl)-4(1H)-quinazolinone]
≤ 20%: all assays above

Cc1cc(Cl)cc2c1N(C(=O)c1cc(Cl)nn1-c1ncccc1Cl)CN(C)C2=O [Compound 17, 6-Chloro-1-[[3-Chloro-1-(3-Chloro-2-pyridinyl)-1H-pyrazol-5-yl]carbonyl]-2,3-dihydro-3,8-dimethyl-4(1H)-quinazolinone]
≤ 20%: all assays above

CN1CN(C(=O)c2cc(C(F)(F)F)nn2-c2ncccc2Cl)c2c(Cl)cc(Cl)cc2C1=O [Compound 13, 6,8-Dichloro-1-[[1-(3-Chloro-2-pyridinyl)-3-(trifluoromethyl)-1H-pyrazol-5-yl]carbonyl]-2,3-dihydro-3-methyl-4(1H)-quinazolinone]
≤ 20%: all assays above

Cc1cc(Br)cc2c(=O)n(C(C)C)c(=O)n(C(=O)c3cc(C(F)(F)F)nn3-c3ncccc3Cl)c12 [Compound 3]
≤ 20%: [1]

Cc1cc(Br)cc2c(=O)n(C)c(=O)n(C(=O)c3cc(C(F)(F)F)nn3-c3ncccc3Cl)c12 [Compound 2, 6-Bromo-1-[[1-(3-Chloro-2-pyridinyl)-3-(trifluoromethyl)-1H-pyrazol-5-yl]carbonyl]-3,8-dimethyl-2,4(1H,3H)-quinazolinedione]
≤ 20%: [1] | [3] | [4]

O=C1c2cc(Cl)cc(Cl)c2N(C(=O)c2cc(Cl)nn2-c2ncccc2Cl)C(c2cccnc2)N1Cl (stereo not shown) [Compound 22]
≤ 20%: [1]

O=C1NCN(C(=O)c2cc(C(F)(F)F)nn2-c2ncccc2Cl)c2c(Cl)cc(Cl)cc21 [Compound 29, 6,8-Dichloro-1-[[1-(3-Chloro-2-pyridinyl)-3-(trifluoromethyl)-1H-pyrazol-5-yl]carbonyl]-2,3-dihydro-4(1H)-quinazolinone]
≤ 20%: [1] | [2]

CN1C(=O)c2cc(Cl)cc(Cl)c2N(C(=O)c2cc(Cl)nn2-c2ncccc2Cl)C1C(=O)O (stereo not shown) [Compound 21]
≤ 20%: [3]

CC(C)N1CN(C(=O)c2cc(Br)nn2-c2ncccc2Cl)c2c(Cl)cc(Cl)cc2C1=O [Compound 9, 1-[[3-Bromo-1-(3-Chloro-2-pyridinyl)-1H-pyrazol-5-yl]carbonyl]-6,8-dichloro-2,3-dihydro-3-(1-methylethyl)-4-(1H)-quinazolinone]
≤ 20%: all assays above

O=C1c2cc(Cl)cc(Cl)c2N(C(=O)c2cc(Cl)nn2-c2ncccc2Cl)C(c2c[nH]cn2)N1Cl (stereo not shown) [Compound 24]
≤ 20%: all assays above

Reference: patent publication US7241767B2, “Quinazoline(di)ones for invertebrate pest control” (E. I. du Pont de Nemours and Company, priority 2002, dated 2007)
